Measurements as given in publication PMC11092326.
These are yes or no findings as the source states them, for the method shown. In cells and extracts the contact can be indirect. Some binding calls cover weakened binding; strength is not graded here.

Amino acid sequences for entries named in this document (tags omitted).
UniProt P35579: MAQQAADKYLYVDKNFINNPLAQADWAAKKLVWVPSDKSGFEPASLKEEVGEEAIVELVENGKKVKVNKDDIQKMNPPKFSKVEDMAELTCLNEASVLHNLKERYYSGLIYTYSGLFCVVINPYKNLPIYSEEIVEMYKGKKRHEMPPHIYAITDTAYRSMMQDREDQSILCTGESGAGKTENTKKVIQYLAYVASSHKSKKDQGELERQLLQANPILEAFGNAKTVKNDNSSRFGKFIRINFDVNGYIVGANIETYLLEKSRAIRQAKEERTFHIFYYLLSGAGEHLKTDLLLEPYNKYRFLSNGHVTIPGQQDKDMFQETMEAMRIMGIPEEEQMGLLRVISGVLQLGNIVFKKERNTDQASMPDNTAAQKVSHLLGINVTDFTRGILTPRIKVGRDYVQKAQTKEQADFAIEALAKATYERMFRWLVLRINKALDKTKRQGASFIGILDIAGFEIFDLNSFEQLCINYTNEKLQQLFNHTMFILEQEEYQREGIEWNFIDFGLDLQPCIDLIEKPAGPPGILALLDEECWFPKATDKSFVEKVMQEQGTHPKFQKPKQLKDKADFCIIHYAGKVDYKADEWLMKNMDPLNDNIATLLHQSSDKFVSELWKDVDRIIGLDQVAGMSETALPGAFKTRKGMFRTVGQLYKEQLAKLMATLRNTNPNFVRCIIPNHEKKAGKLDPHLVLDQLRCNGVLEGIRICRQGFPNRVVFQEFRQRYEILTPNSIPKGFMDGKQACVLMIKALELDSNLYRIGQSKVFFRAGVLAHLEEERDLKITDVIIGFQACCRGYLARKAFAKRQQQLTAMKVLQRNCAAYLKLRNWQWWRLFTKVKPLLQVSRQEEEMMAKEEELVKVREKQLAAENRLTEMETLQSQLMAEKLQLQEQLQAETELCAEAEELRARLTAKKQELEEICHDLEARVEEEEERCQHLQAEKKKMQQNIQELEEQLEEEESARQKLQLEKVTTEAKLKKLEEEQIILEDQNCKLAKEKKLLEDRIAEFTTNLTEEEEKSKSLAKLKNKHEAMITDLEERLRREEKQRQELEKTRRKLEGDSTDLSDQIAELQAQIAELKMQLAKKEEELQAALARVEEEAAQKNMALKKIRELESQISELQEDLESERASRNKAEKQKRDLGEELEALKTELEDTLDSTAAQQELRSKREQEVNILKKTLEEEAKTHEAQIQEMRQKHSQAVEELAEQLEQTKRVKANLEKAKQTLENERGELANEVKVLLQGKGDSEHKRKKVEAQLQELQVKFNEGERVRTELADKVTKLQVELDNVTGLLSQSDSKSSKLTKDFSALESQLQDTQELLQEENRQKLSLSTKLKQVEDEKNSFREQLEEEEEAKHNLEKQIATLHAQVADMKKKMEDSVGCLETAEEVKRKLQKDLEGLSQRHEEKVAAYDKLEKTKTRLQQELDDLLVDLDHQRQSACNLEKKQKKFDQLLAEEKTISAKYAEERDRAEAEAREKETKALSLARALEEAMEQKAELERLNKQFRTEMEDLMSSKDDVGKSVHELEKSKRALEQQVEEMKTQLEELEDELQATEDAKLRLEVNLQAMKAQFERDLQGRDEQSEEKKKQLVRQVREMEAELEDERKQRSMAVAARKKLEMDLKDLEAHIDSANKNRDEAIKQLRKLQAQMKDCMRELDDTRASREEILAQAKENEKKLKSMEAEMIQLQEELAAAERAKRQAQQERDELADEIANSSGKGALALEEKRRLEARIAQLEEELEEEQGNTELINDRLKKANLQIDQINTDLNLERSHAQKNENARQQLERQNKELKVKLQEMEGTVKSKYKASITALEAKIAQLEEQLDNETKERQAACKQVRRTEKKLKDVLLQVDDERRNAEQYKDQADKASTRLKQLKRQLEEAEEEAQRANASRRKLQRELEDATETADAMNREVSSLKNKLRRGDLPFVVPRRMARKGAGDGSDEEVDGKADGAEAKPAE
UniProt P09874: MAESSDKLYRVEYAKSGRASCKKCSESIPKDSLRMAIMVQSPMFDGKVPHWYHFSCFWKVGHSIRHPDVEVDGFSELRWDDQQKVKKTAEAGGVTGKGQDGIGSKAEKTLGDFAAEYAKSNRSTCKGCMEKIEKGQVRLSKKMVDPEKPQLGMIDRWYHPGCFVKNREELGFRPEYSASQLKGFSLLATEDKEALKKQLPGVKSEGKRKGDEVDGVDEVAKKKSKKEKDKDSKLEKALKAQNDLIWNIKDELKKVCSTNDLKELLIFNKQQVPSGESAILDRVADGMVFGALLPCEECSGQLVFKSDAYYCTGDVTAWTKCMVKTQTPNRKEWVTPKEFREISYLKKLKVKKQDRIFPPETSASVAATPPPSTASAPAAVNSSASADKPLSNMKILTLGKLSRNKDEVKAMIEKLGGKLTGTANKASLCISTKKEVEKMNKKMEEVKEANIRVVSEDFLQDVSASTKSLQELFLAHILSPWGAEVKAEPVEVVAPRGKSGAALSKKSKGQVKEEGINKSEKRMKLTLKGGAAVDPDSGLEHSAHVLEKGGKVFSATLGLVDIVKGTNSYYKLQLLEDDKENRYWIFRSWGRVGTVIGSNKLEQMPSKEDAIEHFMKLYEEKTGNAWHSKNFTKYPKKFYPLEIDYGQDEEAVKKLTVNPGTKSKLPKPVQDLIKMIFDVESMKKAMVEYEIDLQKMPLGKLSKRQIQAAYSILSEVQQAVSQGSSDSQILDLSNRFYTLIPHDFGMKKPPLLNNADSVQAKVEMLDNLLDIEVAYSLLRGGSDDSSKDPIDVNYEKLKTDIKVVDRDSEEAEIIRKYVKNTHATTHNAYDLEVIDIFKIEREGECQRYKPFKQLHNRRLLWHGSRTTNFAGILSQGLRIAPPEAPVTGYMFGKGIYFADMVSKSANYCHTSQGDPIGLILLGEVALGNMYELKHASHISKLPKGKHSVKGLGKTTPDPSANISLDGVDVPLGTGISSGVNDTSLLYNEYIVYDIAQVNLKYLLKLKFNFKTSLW
UniProt Q8N884: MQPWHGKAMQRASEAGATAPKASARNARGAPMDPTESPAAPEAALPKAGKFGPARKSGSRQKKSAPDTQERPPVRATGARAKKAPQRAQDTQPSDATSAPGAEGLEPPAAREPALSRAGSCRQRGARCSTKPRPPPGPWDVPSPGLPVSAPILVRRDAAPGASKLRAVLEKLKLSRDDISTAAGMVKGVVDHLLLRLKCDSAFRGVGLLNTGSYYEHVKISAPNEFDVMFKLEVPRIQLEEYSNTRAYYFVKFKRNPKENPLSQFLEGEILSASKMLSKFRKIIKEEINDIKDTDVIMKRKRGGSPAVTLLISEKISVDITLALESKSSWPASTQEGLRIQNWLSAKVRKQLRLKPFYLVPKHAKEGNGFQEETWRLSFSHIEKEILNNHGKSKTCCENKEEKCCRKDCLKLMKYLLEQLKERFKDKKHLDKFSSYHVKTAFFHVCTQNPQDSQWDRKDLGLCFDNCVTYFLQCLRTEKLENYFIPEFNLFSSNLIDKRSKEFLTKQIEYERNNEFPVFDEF

What was measured:
[1] = biological target: non-muscle myosin heavy chain IIA (endogenous, HEK-293T) (human (endogenous in HEK-293T)) (UniProt P35579); test: co-IP
[2] = biological target: non-muscle myosin heavy chain IIA fused with Flag tag (not stated (human or pig cDNA cloned)) (UniProt P35579); test: co-IP

binding [1] | binding [2] | Substance
binds | – | human poly (ADP-ribose) polymerase 1 fused with HA tag (from UniProt P09874 1-1014)
– | binds | human cyclic GMP-AMP synthase fused with HA tag (from UniProt Q8N884 1-522)
